From ChEMBL document CHEMBL4513149, “CO-ADD screening of MMV (CH) - MMV compounds” (2021)
The list shows a part of the results. Results with a measured potency or affinity are listed apart.

The molecules below were run on Pseudomonas aeruginosa. Settings: Concentration 20 uM; ASSAY_TEST Inhibition of Bacterial Growth; detection method Absorption (OD600); MEDIA CAMHB; plate type 384well; NBS; CORNING #3640; time 18 hr.

Point of comparison: `Cc1cc(Nc2ccc(C(F)(F)F)cc2)n2ccnc2n1`, Inhibition 17.38%. Against it:
- COc1cccc2c(C)nc(N=C(N)N)nc12.O=C(O)C(F)(F)F.O=C(O)C(F)(F)F — lower, 13.82%
- CC(C)C(C(=O)Nc1ccc(S(=O)(=O)N(C)C)cc1)c1ccc(Cl)cc1 (stereo unspecified) — lower, 11.04%
- Nc1ncnc2c1c(-c1cnc3ccccc3c1)nn2CC1CCNCC1 — lower, 6.19%
- O=C(NC1CCN(c2ccnc3ccccc23)C1)c1cccc(C(F)(F)F)c1 (stereo unspecified) — higher, 18.51%
- CCCCOC(=O)Nc1cc2nc(C3CCCCC3)[nH]c2cc1N1CCCC1 — lower, 1.19%
- O=C(c1ccc(F)cc1)N(CCNc1ccccc1)c1ccccc1 — lower, 12.58%
- c1ccc2c(c1)CN(CC1CC1)CC1(CCN(Cc3c[nH]c4cnccc34)CC1)O2 — lower, 4.91%
- CCS(=O)(=O)N(Cc1ccco1)Cc1cc2ccc(C)cc2nc1O — lower, 4.65%
- OCc1ccc(-c2cncc(Nc3cccc(Cl)c3)c2)cc1 — higher, 17.87%
- CC(=O)Nc1ccc(NC(=O)c2cc(-c3cc(Cl)ccc3O)n[nH]2)cc1 — lower, 7.36%
- COc1ccc(-c2cc(NC(=O)c3ccc(F)cc3Cl)ccc2OC)cc1 — lower, 12.31%
- COc1ccc2nc(C)cc(OCC(=O)Nc3ccccc3OC)c2c1 — lower, 16.24%
- O=C(C(Cc1c[nH]c2ccccc12)NS(=O)(=O)c1ccc(Cl)cc1)N1CCCCC1 (stereo unspecified) — lower, 2.9%
- N#CCN(CCCCN1CCN(c2ccc(F)cc2)CC1)C(=O)OCc1ccccc1 — lower, 16.37%
- CCC(Sc1nc2ccccc2o1)C(=O)Nc1nccs1 (stereo unspecified) — lower, 14.44%
- N#Cc1ccc(-c2cnc(N)c(-c3ccc(C(N)=O)cc3)n2)cc1 — lower, 12.35%
- CC1CS(=O)(=O)CCN1/N=C/c1ccc([N+](=O)[O-])o1 (stereo unspecified) [NIFURTIMOX] — lower, 14.26%
- Cc1cc2ccccc2n1CC(=O)N1CC(C(=O)N2CCCCC2)Oc2ccccc21 (stereo unspecified) — lower, 14.62%
- O=C(Nc1nc(-c2ccccn2)cs1)c1cncn1-c1ccccc1 — lower, 8.38%
- COc1nc2ccc(Br)cc2cc1[C@@H](c1ccccc1)[C@@](O)(CCN(C)C)c1cccc2ccccc12.O=C(O)C(F)(F)F — higher, 29.83%
- O=C(OCc1ccccc1)N1CCC(c2cc(-c3ccncc3)c(-c3ccc(F)cc3)[nH]2)CC1 — lower, -0.02%
- Cc1noc(C)c1COc1cccc(C(=O)N=c2[nH]cccc2C)c1 — lower, 14.41%
- COc1cccc(OCC(=O)c2ccc(Br)cc2)c1 — lower, -5.97%
- O=C(Nc1nnc(S)s1)c1cc(Br)ccc1Cl — lower, 5.03%
- O=C(Nc1ccc(F)c(-c2nc3cc(-c4ccccc4)cnc3[nH]2)c1)N1CCCC1 — lower, 6.46%
- OC[C@H]1O[C@@H](n2c3ccc(Cl)cc3c3c(-c4cc5ccccc5o4)ncnc32)C(O)[C@H]1O (stereo partly specified) — lower, 6.11%
- CC(C)c1ncc(-c2ccncc2)c([C@H]2CC[C@H](CNC(=O)c3cccnc3)CC2)n1 — higher, 18.15%
- O=C(Nc1ccccc1-c1nc2c(C(=O)O)cccc2o1)c1ccccc1 — lower, -1.97%
- Cc1ccc(S(=O)(=O)n2cc(-c3ccnc(N)c3)c3cc(Br)cnc32)cc1 — lower, 0.76%
- CC(C)/N=c1\cc2n(-c3ccc(Cl)cc3)c3ccccc3nc-2cc1Nc1ccc(Cl)cc1 [CLOFAZIMINE] — lower, 6.99%
- c1cc(C2=NCCN2)cc(-c2cc(-c3ccc(C4=NCCN4)cc3)no2)c1 — lower, 15.63%
- CC(C)(C)OC(=O)N1CCN(c2nccc(-c3ccc(-c4ccc(Cl)cc4)s3)n2)CC1 — lower, 6.83%
- Cc1ccc(-c2nc(CN(Cc3ccccn3)C(C)C)cs2)o1 — higher, 21.2%
- Nc1ccc(C(=O)Nc2ccc(-c3nc4ccccc4o3)cc2)cc1 — lower, 8.27%
- CCCCS(=O)(=O)Nc1ccc2cnn(C)c2c1 — lower, 12.08%
- CCN(CC)CCCN1CCN(C(=O)c2cccc(-c3noc(C(F)(F)F)n3)c2)CC1 — lower, -2.85%
- O=C(NCCc1c[nH]c2ccccc12)c1cc2ccccc2oc1=O — lower, 10.24%
- CC1CCCN(C(=O)C(C)Nc2cc(Cl)ccc2N2CCOCC2)C1 (stereo unspecified) — lower, 13.93%
- COc1ccc(-c2cnc3cnc(-c4cccc(OC(C)C)c4)cn23)cc1 — lower, 7.28%
- COc1ccc(CN2CCOc3ccc(C(C)(O)CN(C)C)cc3C2)cc1C (stereo unspecified) — lower, 10.75%
- CCCn1c(CNc2ccccc2O)nc2ccccc21 — lower, 12.01%
- Cc1cc(C)nc(-n2nc(C)cc2Nc2ccccc2)n1 — lower, 12.99%
- Nc1ncnc2[nH]nc(Cc3cccc4ccccc34)c12 — lower, 14.6%
- CN1CCCC1CCO[C@](C)(c1ccccc1)c1ccc(Cl)cc1.O=C(O)/C=C/C(=O)O (stereo partly specified) — higher, 22.35%
- Cc1ccc(-c2cc(C(=O)Nc3cccnc3)c3cc(Br)ccc3n2)cc1 — lower, 5.94%
